Some of the results follow. These are further read-outs of the screen, such as a control signal, another cell line or another target. No call is given for them. The list favours compounds with an active or inconclusive main result. The note in brackets gives the kind of curve behind each potency; many fits are weak.
Assay: qHTS Assay for Lipid Storage Modulators in Drosophila S3 Cells;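 as to cell number change: cells counted by Cell Tracker Red CMTPX staining in the red channel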
Settings: BODIPY lipid droplet fluorescence, 18-24 h; for cell number change: measured here: cell count max response, cells fed with added oleic acid
Method in brief: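 Drosophila S3 cells got compounds at several concentrations plus oleic acid (400 uM solution). Laser-scanning cytometry with 488 nm excitation read lipid droplets at 500-530 nm and cells at 575-640 nm. Percent activity was relative to 20 uM Triacsin C.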

[1] = measured here: cell number channel AC50, cells fed with added oleic acid
[2] = measured here: lipid fluorescence (Fed channel) AC50, cells fed with added oleic acid

Row | Structure (SMILES) | cell number change | AC50 [1] | AC50 [2]
1 | CCOC(=O)c1c(NC(=O)COC(=O)c2nc(Cl)ccc2Cl)sc(C(=O)NC)c1C | -2.41% | – | –
2 | CCN(C(=O)c1ccc(S(=O)(=O)N2CCCCC2)cc1)C1CCS(=O)(=O)C1 (stereo not drawn) | – | 0.00461 µM [falling, full curve, poor fit] | –
3 | COc1cc2ccccc2cc1C(=O)N1CCCC(C(F)(F)F)C1 (stereo not drawn) | -18% | – | –
4 | Cc1ccc(-c2ccc(SCC(=O)Nc3nonc3C)nn2)cc1 | -22.5% | – | 0.58 µM [falling, single point]
5 | O=C(CN1C(=O)S/C(=C\C=C\c2ccccc2)C1=O)NC1CCS(=O)(=O)C1 (stereo not drawn) | -24.1% | – | 29.1 µM [falling, single point]
6 | O=C1C(=C(c2ccccc2)c2ccccc2)Nc2ccccc21 | -90.3% | 5.8 µM [falling, full curve] | 1.84 µM [falling, full curve]
7 | O=C(c1c(F)cccc1F)N1CCN(S(=O)(=O)c2ccc3c(c2)OCCO3)CC1 | -18.4% | – | –
8 | O=C(Nc1cccc(-c2cccc(Cl)c2)c1)C1CCN(Cc2ccon2)CC1 | – | – | 0.366 µM [rising, full curve, poor fit]
9 | Cc1cccc(-c2nc(CSCC(=O)N3CCN(c4ccccn4)CC3)c(C)o2)c1 | -62.6% | 29.1 µM [falling, single point] | 29.1 µM [falling, single point]
10 | CC(C)C1N(C(=O)CN2CCCCC2)CCN1S(=O)(=O)c1ccccc1 (stereo not drawn) | -34.8% | – | –
11 | O=S(=O)(NC1CCC(NS(=O)(=O)c2c(F)cccc2F)CC1)c1ccc2c(c1)OCCO2 (stereo not drawn) | 7.49% | – | 5.8 µM [rising, single point]
12 | O=C(O)[C@H](Cc1c[nH]c2ccccc12)Nc1ncccc1[N+](=O)[O-] | -16.2% | – | 3.66 µM [falling, full curve]
13 | CC(C)[C@H](NC(=O)c1ccco1)C(=O)Nc1ccc(OC(F)F)cc1 | 59.9% | 1.84 µM [rising, partial curve] | –
14 | O=C(NNC(=O)c1cccs1)c1ccccc1 | 53.2% | 0.13 µM [rising, full curve, poor fit] | –
15 | NC(=O)c1ccc(NC(=O)COC(=O)/C=C/c2cn(-c3ccccc3)nc2-c2cccnc2)cc1 | -35.6% | 0.82 µM [falling, full curve, poor fit] | 3.66 µM [rising, single point]
16 | O=C(NCc1ccccc1)C(=O)NCC1OCCN1S(=O)(=O)c1ccc2c(c1)OCCO2 (stereo not drawn) | 5.69% | – | 18.4 µM [rising, single point]
17 | COC(=O)c1ccc(CO/N=C/c2ccc(OC)cc2)o1 | -27.9% | 3.66 µM [falling, full curve, poor fit] | 2.91 µM [falling, full curve]
18 | CC(C)C(=O)NCC(c1ccc2c(c1)OCO2)N1CCOCC1 (stereo not drawn) | 22.4% | – | 0.731 µM [rising, full curve, poor fit]
19 | O=C(CSc1nnnn1-c1cccc2ccccc12)Nc1ccc(N2CCOCC2)c(Cl)c1 | 48.4% | 0.731 µM [rising, full curve] | 4.61 µM [rising, partial curve]

Entries shown so far that contain an aryl methoxy group (2):
Row | Structure (SMILES) | cell number change | AC50 [1] | AC50 [2]
3 | COc1cc2ccccc2cc1C(=O)N1CCCC(C(F)(F)F)C1 (stereo not drawn) | -18% | – | –
17 | COC(=O)c1ccc(CO/N=C/c2ccc(OC)cc2)o1 | -27.9% | 3.66 µM [falling, full curve, poor fit] | 2.91 µM [falling, full curve]

Carrying on.

Row | Structure (SMILES) | cell number change | AC50 [1] | AC50 [2]
20 | CCc1ccc(-n2cc(-c3ccc(F)cc3)[n+]3c2SCCC3)cc1 | 14.8% | – | 0.116 µM [falling, full curve]
21 | CN(C(=O)c1ccccc1C(=O)OCC(=O)c1ccccc1)c1ccccc1 | -9.46% | – | 0.146 µM [rising, full curve, poor fit]
22 | Cn1cc(Br)c(C(=O)N/N=C/c2cc3ccccc3nc2Cl)n1 | -32% | 20.6 µM [falling, single point] | –
23 | O=C(COCc1nc2ccccc2c(=O)[nH]1)NC1CCCC1 | -30.5% | 5.8 µM [falling, full curve, poor fit] | 5.17 µM [rising, full curve]
24 | COc1ccc(CC(=O)Nc2ccc(S(=O)(=O)Nc3cc(C)on3)cc2)cc1 | – | – | 0.00461 µM [rising, full curve, poor fit]
25 | Cc1cc(NC(=O)CCSc2ccc(Cl)cc2)no1 | – | – | 0.231 µM [falling, full curve, poor fit]
26 | Cc1ccc2nc(NC(=O)C3CCCN(S(=O)(=O)c4cnc[nH]4)C3)sc2c1 (stereo not drawn) | -23.5% | – | 1.46 µM [falling, partial curve]
27 | COc1cccc(/C=C2\C(=O)C(=O)c3ccccc32)c1 | – | 3.66 µM [rising, single point] | –
28 | COc1ccc(NC(=O)CC2C(=O)N(c3ccc(OC)cc3)C(=O)N2CCN2CCN(C)CC2)cc1 (stereo not drawn) | -9.75% | 6.51 µM [falling, single point] | –
29 | CC[n+]1c(C)sc2c3ccsc3ccc21 | -6.9% | 1.64 µM [rising, partial curve, poor fit] | –
30 | O=C(CSc1nnc(C2CC2)n1C1CC1)c1ccc(F)cc1 | 36.3% | 2.06 µM [rising, single point] | 16.4 µM [rising, single point]
31 | CC1CCN(S(=O)(=O)c2cc(F)ccc2CN2C(=O)c3cccnc3C2=O)CC1 | -23.3% | 6.51 µM [rising, single point] | –
32 | CCN(c1ccc(NC(=O)COC(=O)c2ccc(C)c(S(=O)(=O)N3CCOCC3)c2)cc1)C(C)C | – | – | 1.3 µM [falling, full curve]
33 | O=C(COc1ccc(Br)cc1Br)NC1CCCC1 | -33.8% | 29.1 µM [falling, single point] | 20.6 µM [falling, single point]
34 | Nc1cc(OC(=O)c2ccc(F)cc2)nn1S(=O)(=O)c1ccccc1 | 9.46% | – | –
35 | COc1cccc2cc(C(=O)CS(=O)(=O)c3ccc(C)cc3)c(=O)oc12 | -51.9% | 14.6 µM [falling, partial curve, poor fit] | 5.8 µM [falling, full curve]
36 | COc1ccc(NC(=O)CSc2nnc(NC(=O)C3CCC3)s2)c(OC)c1 | 32.8% | – | –
37 | Cc1ccnc(NS(=O)(=O)c2ccc(NC(=O)c3snnc3C)cc2)n1 | 20.8% | – | –
38 | NNS(=O)(=O)c1ccc(N2CCCC2=O)c([N+](=O)[O-])c1 | -27.5% | 0.517 µM [falling, full curve, poor fit] | 2.31 µM [falling, full curve]

Source: PubChem BioAssay AID2685 (National Center for Advancing Translational Sciences (NCATS), 2010)
